Data source: PubChem BioAssay AID1259308 (NCATS, 2017)
The whole screen tested about 59,000 reagents; shown is a random part of them. Over the whole deposit, about 1,510 (2.6%) were called active. 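Calls use total luciferase alone and ignore viability, so some active siRNAs may act by altering cell number.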 A number with no mark means an inactive call. The numbers tell different reagents against one gene apart. Not all columns of the deposit are shown.

Assay: 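Genes whose loss raises luciferase production in HEK293 cells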 (primary screen)
System: human HEK293 embryonic kidney cells stably expressing firefly luciferase (HEK-CMV-Luc2-Hygro)
Knock-down reagent: single siRNA against human genes, 0.8 pmol siRNA per well
Duration: 72 h
Read-out: 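Luciferase light (ONE-Glo) measured on one replicate plate set and viability (CellTiter-Glo) on the other, scaled to a negative control siRNA, with robust z-scores and luciferase per cell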
Scale: total luciferase, z-score and total luciferase, % of control: higher = more reporter protein produced; luciferase per cell, z-score: higher = more reporter output per viable cell
Call rule: 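Active when the median/MAD z-score for overall luciferase is greater than 3; a gene was taken forward for validation with new siRNAs if at least two of its three siRNAs passed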
Calls: active = raised luciferase; inactive = no rise

| gene | siRNA no. | total luciferase, z-score | total luciferase, % of control | luciferase per cell, z-score |
| --- | --- | --- | --- | --- |
| CEL (carboxyl ester lipase) | 1 | -0.501 | 71.9 | -0.359 |
| CEL (carboxyl ester lipase) | 2 | -0.601 | 69.9 | -0.799 |
| CEL (carboxyl ester lipase) | 3 | -0.429 | 73.4 | -0.0999 |
| FAM170A (family with sequence similarity 170 member A) | 1 | -1.46 | 52.8 | -1.58 |
| FAM170A (family with sequence similarity 170 member A) | 2 | -0.281 | 76.3 | -0.305 |
| FAM170A (family with sequence similarity 170 member A) | 3 | -1.49 | 52.2 | -1.48 |
| BTG2-DT (BTG2 divergent transcript) | 1 | 1.98 | 121 | 1.83 |
| BTG2-DT (BTG2 divergent transcript) | 2 | 1.24 | 107 | 0.915 |
| BTG2-DT (BTG2 divergent transcript) | 3 | 0.00757 | 82 | -0.257 |
| RLF (RLF zinc finger) | 1 | 0.33 | 88.5 | -0.335 |
| RLF (RLF zinc finger) | 2 | 1.62 | 114 | 1.14 |
| RLF (RLF zinc finger) | 3 | 0.188 | 85.6 | 0.172 |
| KRTCAP2 (keratinocyte associated protein 2) | 1 | 1.2 | 106 | 1.26 |
| KRTCAP2 (keratinocyte associated protein 2) | 2 | -0.0488 | 80.9 | 0.238 |
| KRTCAP2 (keratinocyte associated protein 2) | 3 | -0.343 | 75.1 | -0.369 |
| BMP7 (bone morphogenetic protein 7) | 1 | -1.5 | 52.1 | -1.2 |
| BMP7 (bone morphogenetic protein 7) | 2 | -1.09 | 60.2 | -0.534 |
| BMP7 (bone morphogenetic protein 7) | 3 | 0.549 | 92.8 | 0.0573 |
| C18orf63 (chromosome 18 open reading frame 63) | 1 | 1.24 | 107 | 1.27 |
| C18orf63 (chromosome 18 open reading frame 63) | 2 | 0.147 | 84.8 | -0.327 |
| C18orf63 (chromosome 18 open reading frame 63) | 3 | -1.92 | 43.6 | -0.814 |
| CENPBD1P (CENPB DNA-binding domain containing 1, pseudogene) | 1 | 2.26 | 127 | 1.89 |
| CENPBD1P (CENPB DNA-binding domain containing 1, pseudogene) | 2 | 3.36 (active) | 149 | 1.94 |
| CENPBD1P (CENPB DNA-binding domain containing 1, pseudogene) | 3 | -0.995 | 62.1 | -1.04 |

Records above whose gene name begins with B or b:
| gene | siRNA no. | total luciferase, z-score | total luciferase, % of control | luciferase per cell, z-score |
| --- | --- | --- | --- | --- |
| BTG2-DT (BTG2 divergent transcript) | 1 | 1.98 | 121 | 1.83 |
| BTG2-DT (BTG2 divergent transcript) | 2 | 1.24 | 107 | 0.915 |
| BTG2-DT (BTG2 divergent transcript) | 3 | 0.00757 | 82 | -0.257 |
| BMP7 (bone morphogenetic protein 7) | 1 | -1.5 | 52.1 | -1.2 |
| BMP7 (bone morphogenetic protein 7) | 2 | -1.09 | 60.2 | -0.534 |
| BMP7 (bone morphogenetic protein 7) | 3 | 0.549 | 92.8 | 0.0573 |

The results go on:
| gene | siRNA no. | total luciferase, z-score | total luciferase, % of control | luciferase per cell, z-score |
| --- | --- | --- | --- | --- |
| PI4KA (phosphatidylinositol 4-kinase alpha) | 1 | -0.108 | 79.7 | -0.519 |
| PI4KA (phosphatidylinositol 4-kinase alpha) | 2 | -0.835 | 65.3 | -0.987 |
| PI4KA (phosphatidylinositol 4-kinase alpha) | 3 | -0.0105 | 81.7 | -0.371 |
| NOXRED1 (NADP dependent oxidoreductase domain containing 1) | 1 | -1.48 | 52.5 | -1.35 |
| NOXRED1 (NADP dependent oxidoreductase domain containing 1) | 2 | 0.394 | 89.7 | 0.17 |
| NOXRED1 (NADP dependent oxidoreductase domain containing 1) | 3 | -0.106 | 79.8 | -0.524 |
| SLC16A7 | 1 | 0.842 | 98.6 | 0.572 |
| SLC16A7 | 2 | -1 | 61.9 | -0.75 |
| SLC16A7 | 3 | 1.67 | 115 | 1.49 |
| RAB25 (RAB25, member RAS oncogene family) | 1 | 0.186 | 85.6 | 0.717 |
| RAB25 (RAB25, member RAS oncogene family) | 2 | 4 (active) | 161 | 2.82 |
| RAB25 (RAB25, member RAS oncogene family) | 3 | 1.67 | 115 | 0.801 |
| SYMPK (symplekin scaffold protein) | 1 | -1.51 | 51.9 | -1.99 |
| SYMPK (symplekin scaffold protein) | 2 | -2.24 | 37.4 | -3.01 |
| SYMPK (symplekin scaffold protein) | 3 | -2.22 | 37.7 | -2.13 |
| SUPT20HL2 (SUPT20H like 2) | 1 | 1.84 | 118 | 3.26 |
| SUPT20HL2 (SUPT20H like 2) | 2 | -2.15 | 39.1 | -1.95 |
| SUPT20HL2 (SUPT20H like 2) | 3 | -0.52 | 71.5 | -0.419 |
| OR56A4 (olfactory receptor family 56 subfamily A member 4) | 1 | -2.76 | 27 | -0.477 |
| OR56A4 (olfactory receptor family 56 subfamily A member 4) | 2 | -0.352 | 74.9 | -0.473 |
| OR56A4 (olfactory receptor family 56 subfamily A member 4) | 3 | 2.42 | 130 | 1.86 |
| PXN (paxillin) | 1 | 0.396 | 89.8 | -0.19 |
| PXN (paxillin) | 2 | -0.344 | 75 | -0.428 |
| PXN (paxillin) | 3 | 0.309 | 88 | -0.301 |
| SERPINF2 (serpin family F member 2) | 1 | -2.01 | 41.8 | -1.52 |
| SERPINF2 (serpin family F member 2) | 2 | -0.189 | 78.1 | -0.351 |
| SERPINF2 (serpin family F member 2) | 3 | 1.73 | 116 | 1.43 |
| ATG16L1 (autophagy related 16 like 1) | 1 | 0.514 | 92.1 | 0.828 |
| ATG16L1 (autophagy related 16 like 1) | 2 | 1.75 | 117 | 3.52 |
| ATG16L1 (autophagy related 16 like 1) | 3 | -0.0311 | 81.3 | -0.201 |
| STARD5 (StAR related lipid transfer domain containing 5) | 1 | -0.321 | 75.5 | -0.698 |
| STARD5 (StAR related lipid transfer domain containing 5) | 2 | -1.64 | 49.2 | -1.83 |
| STARD5 (StAR related lipid transfer domain containing 5) | 3 | -1.47 | 52.6 | -1.1 |
